Changes are numbered by the printed parent chain. Numbers in names are those of the source. No constants are given. Whether binding was seen depends on the method and setting. Some binding calls cover weakened binding; strength is not graded here. For part of these data: Where a sequence is shown, tags or fusion partners need not be part of it. Blank lines part the entries; values can stand above or below the molecule they belong to.
Key:
Test in all cases: two-hybrid
[1] = target: DnaA, wild type, full-length, bacterial two-hybrid fusion (B. subtilis) (UniProt P05648)
[2] = target: T1, DnaB, full-length, bacterial two-hybrid fusion (B. subtilis) (UniProt P07908)
T1 sequence: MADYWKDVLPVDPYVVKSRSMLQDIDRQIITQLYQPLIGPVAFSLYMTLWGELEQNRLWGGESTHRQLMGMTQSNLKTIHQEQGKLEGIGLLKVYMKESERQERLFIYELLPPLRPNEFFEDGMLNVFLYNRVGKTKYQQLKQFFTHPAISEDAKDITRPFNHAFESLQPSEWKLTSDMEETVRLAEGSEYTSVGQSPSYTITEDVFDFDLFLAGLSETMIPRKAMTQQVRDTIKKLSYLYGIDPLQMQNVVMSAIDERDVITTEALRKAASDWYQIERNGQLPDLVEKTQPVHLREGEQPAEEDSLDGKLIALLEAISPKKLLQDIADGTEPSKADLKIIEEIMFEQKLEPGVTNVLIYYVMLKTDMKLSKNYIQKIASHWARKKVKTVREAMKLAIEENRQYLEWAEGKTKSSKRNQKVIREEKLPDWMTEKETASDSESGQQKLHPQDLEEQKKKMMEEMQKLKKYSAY

Chains of the proteins cited; added tags and fusions are not shown. Lines headed by an entry give the natural chain unless they say otherwise; changes in a name come on top.
UniProt P05648, whole entry: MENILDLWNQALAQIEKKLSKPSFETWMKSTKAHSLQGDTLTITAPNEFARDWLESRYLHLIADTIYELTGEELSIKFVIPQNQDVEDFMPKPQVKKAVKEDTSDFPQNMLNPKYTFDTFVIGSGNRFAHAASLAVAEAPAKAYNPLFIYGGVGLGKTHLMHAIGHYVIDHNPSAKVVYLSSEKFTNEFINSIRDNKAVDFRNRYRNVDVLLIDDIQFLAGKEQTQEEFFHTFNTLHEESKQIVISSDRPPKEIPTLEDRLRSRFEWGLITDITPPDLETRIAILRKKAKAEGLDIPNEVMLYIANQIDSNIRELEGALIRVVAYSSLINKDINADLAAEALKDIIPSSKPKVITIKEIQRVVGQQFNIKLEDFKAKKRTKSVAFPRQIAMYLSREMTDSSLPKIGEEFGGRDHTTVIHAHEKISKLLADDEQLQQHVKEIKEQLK

[3] = target: T2, DnaB, full-length, bacterial two-hybrid fusion (B. subtilis), P07908; details: remark: other sources report otherwise
T2 chain: T1 sequence

binding [1]: binds
Molecule: DnaA^T26A, full-length, bacterial two-hybrid fusion (from UniProt P05648 1-446)

binding [1]: binds
Molecule: DnaA^F49A, full-length, bacterial two-hybrid fusion (from UniProt P05648 1-446)

binding [1]: binds
Molecule: DnaA^W27A, full-length, bacterial two-hybrid fusion (from UniProt P05648 1-446)

binding [1]: binds
Molecule: DnaA, wild type, full-length, bacterial two-hybrid fusion (from UniProt P05648 1-446)

binding [2]: no binding
B1: DnaD with deletion of the last eight amino acids, bacterial two-hybrid fusion (domain or fragment, UniProt P39787 1-224)
chain: MKKQQFIDMQEQGTSTIPNLLLTHYKQLGLNETELILLLKIKMHLEKGSYFPTPNQLQEGMSISVEECTNRLRMFIQKGFLFIEECEDQNGIKFEKYSLQPLWGKLYEYIQLAQNQTQERKAEGEQKSLYTIFEEEFARPLSPLECETLAIWQDQDQHDAQLIKHALKEAVLSGKLSFRYIDRILFEWKKNGLKTVEQAKIHSQKFRRVQAKQNEPQKEYKRQV

binding [3]: binds
B2: DnaD, wild type, full-length, bacterial two-hybrid fusion, P39787 1-232 (protein)
chain: MKKQQFIDMQEQGTSTIPNLLLTHYKQLGLNETELILLLKIKMHLEKGSYFPTPNQLQEGMSISVEECTNRLRMFIQKGFLFIEECEDQNGIKFEKYSLQPLWGKLYEYIQLAQNQTQERKAEGEQKSLYTIFEEEFARPLSPLECETLAIWQDQDQHDAQLIKHALKEAVLSGKLSFRYIDRILFEWKKNGLKTVEQAKIHSQKFRRVQAKQNEPQKEYKRQVPFYNWLEQ

binding [2]: binds
B3: DnaD^F6A, full-length, bacterial two-hybrid fusion (protein, UniProt P39787 1-232)
chain: B2 chain with F6A

binding [2]: no binding
B4: DnaD^L22A, full-length, bacterial two-hybrid fusion (protein, UniProt P39787 1-232)
chain: B2 chain with L22A

binding [2]: no binding
B5: DnaD^W229A, bacterial two-hybrid fusion (protein, UniProt P39787 1-232)
chain: B2 chain with W229A

Source: article doi:10.1101/2021.08.16.456468
